In paper PMC6315023:
Results are given in words; binding and its absence hold for the method and conditions named. Binding seen in cells or lysates may run through a third protein. Some results given as binding are weak or reduced against the parent protein; the word gives no strength. For part of these data: Tags and fused reporters may be left off the sequences shown.

By UniProt entry, the sequences of proteins in these tests, tags left out.
UniProt P40763: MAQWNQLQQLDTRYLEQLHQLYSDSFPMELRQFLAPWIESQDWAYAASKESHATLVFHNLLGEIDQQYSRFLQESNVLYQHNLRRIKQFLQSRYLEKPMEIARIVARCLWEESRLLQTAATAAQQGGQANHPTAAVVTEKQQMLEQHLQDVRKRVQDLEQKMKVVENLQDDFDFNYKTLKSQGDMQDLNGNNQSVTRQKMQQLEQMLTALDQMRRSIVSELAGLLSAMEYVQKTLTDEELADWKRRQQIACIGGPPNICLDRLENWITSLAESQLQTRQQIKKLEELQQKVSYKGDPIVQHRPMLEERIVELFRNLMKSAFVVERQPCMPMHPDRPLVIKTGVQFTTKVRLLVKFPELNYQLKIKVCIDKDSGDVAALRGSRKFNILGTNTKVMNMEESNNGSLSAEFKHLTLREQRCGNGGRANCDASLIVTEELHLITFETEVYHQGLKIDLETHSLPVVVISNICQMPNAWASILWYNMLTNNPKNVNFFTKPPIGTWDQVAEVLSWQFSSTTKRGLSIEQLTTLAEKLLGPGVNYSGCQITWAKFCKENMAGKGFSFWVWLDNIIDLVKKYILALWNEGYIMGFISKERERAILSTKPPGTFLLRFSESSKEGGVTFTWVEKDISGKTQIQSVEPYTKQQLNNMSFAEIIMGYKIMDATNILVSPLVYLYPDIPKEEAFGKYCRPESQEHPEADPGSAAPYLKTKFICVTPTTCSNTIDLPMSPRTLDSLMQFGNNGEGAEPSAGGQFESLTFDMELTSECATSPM

How the values were obtained:
HA-SIRT2 = molecular target: T1, HA-SIRT2 (UniProt Q8IXJ6); test: co-IP; cells co-transfected with Flag-STAT3 and HA-SIRT2 for 48 h; NP40 lysis buffer; Flag or HA antibody overnight at 4 °C, protein A/G agarose beads; western blot
T1 sequence: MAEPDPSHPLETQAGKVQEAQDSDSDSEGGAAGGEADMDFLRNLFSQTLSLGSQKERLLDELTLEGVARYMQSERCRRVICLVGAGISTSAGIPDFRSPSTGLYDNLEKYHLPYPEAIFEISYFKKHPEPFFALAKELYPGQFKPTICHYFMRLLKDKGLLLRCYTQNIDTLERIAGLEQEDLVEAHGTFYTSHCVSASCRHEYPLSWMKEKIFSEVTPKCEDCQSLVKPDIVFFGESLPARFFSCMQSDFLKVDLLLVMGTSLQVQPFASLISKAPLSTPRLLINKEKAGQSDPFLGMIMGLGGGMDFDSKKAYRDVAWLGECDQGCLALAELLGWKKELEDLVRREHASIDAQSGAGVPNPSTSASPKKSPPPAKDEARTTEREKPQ

Flag-STAT3 = Flag-STAT3 (UniProt P40763); test: as above
[1] = molecular target: endogenous STAT3 (human (endogenous in SW480)) (UniProt P40763); test: co-IP; endogenous proteins; SW480 cell lysate, immunoprecipitation and western blot

Flag-STAT3 (from UniProt P40763 1-770)
binding (HA-SIRT2): binds

B1: HA-SIRT2 (protein, UniProt Q8IXJ6 1-389)
chain: MAEPDPSHPLETQAGKVQEAQDSDSDSEGGAAGGEADMDFLRNLFSQTLSLGSQKERLLDELTLEGVARYMQSERCRRVICLVGAGISTSAGIPDFRSPSTGLYDNLEKYHLPYPEAIFEISYFKKHPEPFFALAKELYPGQFKPTICHYFMRLLKDKGLLLRCYTQNIDTLERIAGLEQEDLVEAHGTFYTSHCVSASCRHEYPLSWMKEKIFSEVTPKCEDCQSLVKPDIVFFGESLPARFFSCMQSDFLKVDLLLVMGTSLQVQPFASLISKAPLSTPRLLINKEKAGQSDPFLGMIMGLGGGMDFDSKKAYRDVAWLGECDQGCLALAELLGWKKELEDLVRREHASIDAQSGAGVPNPSTSASPKKSPPPAKDEARTTEREKPQ
binding (Flag-STAT3): binds

B2: endogenous SIRT2 (protein, UniProt Q8IXJ6 1-389)
chain: MAEPDPSHPLETQAGKVQEAQDSDSDSEGGAAGGEADMDFLRNLFSQTLSLGSQKERLLDELTLEGVARYMQSERCRRVICLVGAGISTSAGIPDFRSPSTGLYDNLEKYHLPYPEAIFEISYFKKHPEPFFALAKELYPGQFKPTICHYFMRLLKDKGLLLRCYTQNIDTLERIAGLEQEDLVEAHGTFYTSHCVSASCRHEYPLSWMKEKIFSEVTPKCEDCQSLVKPDIVFFGESLPARFFSCMQSDFLKVDLLLVMGTSLQVQPFASLISKAPLSTPRLLINKEKAGQSDPFLGMIMGLGGGMDFDSKKAYRDVAWLGECDQGCLALAELLGWKKELEDLVRREHASIDAQSGAGVPNPSTSASPKKSPPPAKDEARTTEREKPQ
binding [1]: binds
